Drawing on patent US20060257938A1, “Method of screening for drugs that block ligand binding to a lipid binding protein” (priority 2005, published 2006), this text covers AvgOfRo for 13 molecules.

B1: 11G, 72A (protein, listed as Rattus norvegicus)
chain: AFDGTWKVDRGENYEKFMEKMGINVVKRKLGAHDNLKLTITQEGNKFTVKESSNFRNIDVVFELGVDFAYSAADGTELTGTWTMEGNKLVGKFKRVDNGKELIAVREISGNELIQTYTYEGVEAKRIFKKE
modifications: PEPTIDE (1)...(131) wild-type rat intestinal fatty acid binding protein
B2: 102H, 72A (protein, listed as Rattus norvegicus)
chain: B1 chain with G11N, L102H
modifications: PEPTIDE (1)...(131) wild-type rat intestinal fatty acid binding protein
B3: 126E, 72A (protein, listed as Rattus norvegicus)
chain: B1 chain with G11N, R126E
modifications: PEPTIDE (1)...(131) wild-type rat intestinal fatty acid binding protein
B4: 126H, 72A (protein, listed as Rattus norvegicus)
chain: B1 chain with G11N, R126H
modifications: PEPTIDE (1)...(131) wild-type rat intestinal fatty acid binding protein
B5: 11Y1, 72A (protein, listed as Rattus norvegicus)
chain: B1 chain with G11Y
modifications: PEPTIDE (1)...(131) wild-type rat intestinal fatty acid binding protein
B6: 11Y1, L72A (protein, listed as Rattus norvegicus)
chain: B1 chain with G11Y
modifications: PEPTIDE (1)...(131) wild-type rat intestinal fatty acid binding protein
B7: 126M, 72A (protein, listed as Rattus norvegicus)
chain: B1 chain with G11N, R126M
modifications: PEPTIDE (1)...(131) wild-type rat intestinal fatty acid binding protein
B8: 126A, 72A (protein, listed as Rattus norvegicus)
chain: B1 chain with G11N, R126A
modifications: PEPTIDE (1)...(131) wild-type rat intestinal fatty acid binding protein
B9: 126L, 72A (protein, listed as Rattus norvegicus)
chain: B1 chain with G11N, R126L
modifications: PEPTIDE (1)...(131) wild-type rat intestinal fatty acid binding protein
B10: 126F, 72A (protein, listed as Rattus norvegicus)
chain: B1 chain with G11N, R126F
modifications: PEPTIDE (1)...(131) wild-type rat intestinal fatty acid binding protein
B11: 102G, 72A (protein, listed as Rattus norvegicus)
chain: B1 chain with G11N, L102G
modifications: PEPTIDE (1)...(131) wild-type rat intestinal fatty acid binding protein
B12: 126I, 72A (protein, listed as Rattus norvegicus)
chain: B1 chain with G11N, R126I
modifications: PEPTIDE (1)...(131) wild-type rat intestinal fatty acid binding protein
B13: 126D, 72A (protein, listed as Rattus norvegicus)
chain: B1 chain with G11N, R126D
modifications: PEPTIDE (1)...(131) wild-type rat intestinal fatty acid binding protein

Substitutions are numbered along the chain they refer to.

The nature of the data set: Baseline fluorescence ratio Ro of probe in absence of analyte. Conditions: baseline fluorescence ratio of probe, no fatty acid.
In the case of B1, the AvgOfRo is given as 0.14.
B2: the AvgOfRo was 0.37.
Take B3: the AvgOfRo is on record as 0.33.
For the molecule B4, the AvgOfRo was determined as 0.31.
Consider B5, for which the AvgOfRo is reported as 0.31.
On to B6, for which the AvgOfRo is given as 0.33.
As for B7, the AvgOfRo came out at 0.32.
On to B8, for which the AvgOfRo came out at 0.19.
B9: the AvgOfRo is recorded as 0.34.
For the molecule B10, the AvgOfRo was determined as 0.38.
Consider B11, for which the AvgOfRo was found to be 0.38.
Consider B12, for which the AvgOfRo is listed as 0.30.
Consider B13, for which the AvgOfRo came to 0.38.
